Data taken from PubChem BioAssay AID485314 (National Center for Advancing Translational Sciences (NCATS), 2010).
In all, about 340,000 compounds went through this assay and about 4,500 (1.3%) were called active. The inconclusive results got no clear call from the source; some entries with a clear call stand among them for comparison. Calls follow the shape of the dose curve; as a rule, active = well fitted inhibition curve with a large enough effect; inconclusive = small, poorly fitted or top-dose-only effect, or another doubt; inactive = no such curve, though single readings can be large or run the other way. Where the call is inconclusive, the potency comes from a doubtful curve fit.

These molecules were tested against DNA polymerase beta (Homo sapiens) (UniProt P06746) (assay: qHTS Assay for Inhibitors of DNA Polymerase Beta). Settings: Pol beta primer extension/strand displacement, fluorescence kinetic; activity change, negative = inhibition: at 114 µM (top of the series).
How it was run: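 Homogeneous kinetic assay of primer extension and strand displacement by 10 nM Pol beta, preincubated 15 min at room temperature with compound before 50 nM substrate (final) was added. Read at 0 and 10 min; four-parameter Hill fit.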
% is scaled to controls: 0 for no effect and ±100 for the full control effect; potency is read from the fitted curve at half-maximal effect.

Row | SMILES | Potency | activity change, negative = inhibition
1 | Cc1c(Br)c([N+](=O)[O-])nn1CC(=O)Nc1ccc(C(N)=O)cc1 | inconclusive: 79.4 µM [inhibitor, single point] | –
2 | COC(=O)CSc1ncnc2c1sc1nc(-c3ccco3)c3c(c12)CC(C)(C)OC3 | inconclusive: 25.1 µM [inhibitor, partial curve] | –
3 | Cc1ccc(C#N)c(SCc2ccccc2[N+](=O)[O-])n1 | inconclusive: 0.112 µM [inhibitor, full curve, poor fit] | –
4 | Cc1ccc(C)c(N2C(=O)N(Cc3c(F)cccc3Cl)c3ccccc3S2(=O)=O)c1 | inconclusive: 22.4 µM [inhibitor, partial curve, poor fit] | –
5 | O=C(Nc1cccc2ccccc12)c1ccc(Br)o1 | inconclusive: 50.1 µM [inhibitor, partial curve] | –
6 | COC(=O)c1cc(NC(=O)Nc2ccc3snnc3c2)cc(C(=O)OC)c1 | inconclusive: 7.94 µM [inhibitor, full curve, poor fit] | –
7 | COc1ccccc1-c1noc(-c2ccc(N3CCOCC3)c([N+](=O)[O-])c2)n1 | – | inactive: -29.4%
8 | CN1CCN(CCCn2cnc3c(=O)oc4ccccc4c32)CC1 | inconclusive: 89.1 µM [inhibitor, single point] | –
9 | CCC(=O)Nc1ccc(C(=O)NNC(=O)COc2cccc(C)c2)cc1 | inconclusive: 100 µM [inhibitor, single point] | –
10 | O=C1N=C(N2CCCCC2)SC1=C1CCCCC1 | – | inactive: 2.33%
11 | O=C(NCCn1ccc2ccccc21)c1ccc(S(=O)(=O)N2CCCCC2)cc1 | inconclusive: 70.8 µM [inhibitor, partial curve, poor fit] | –
12 | COc1ccccc1N1CCN(C(=O)c2cc3c(=O)n(C)c4ccccc4c3s2)CC1 | – | inactive: 2.85%
13 | COc1ccc(CNC(=O)c2cc3c(-c4ccc(Cl)cc4)nn(C)c3s2)cc1 | – | inactive: 20.1%
14 | O=C(O)C1C2C=CC(O2)C1C(=O)NCCC1=CCCCC1 (centres undefined) | inconclusive: 15.8 µM [inhibitor, full curve, poor fit] | –
15 | COc1cc(/C=C2\C(=N)N3N=C(C)SC3=NC2=O)cc(OC)c1OCCOc1ccccc1C | – | inactive: 3.66%
16 | COc1ccc(CCNC(=O)Cn2cc(C(=O)c3ccc(Cl)cc3)c(=O)c3ccc(C)nc32)cc1OC | inconclusive: 70.8 µM [inhibitor, single point] | –
17 | N#Cc1cccc(C(c2nnnn2C2CCCC2)N2CCCCCC2)c1 (centres undefined) | – | inactive: 0.544%
18 | CCOC(=O)N(Cc1ccccc1)C(C(=O)O)C(C(=O)O)N(Cc1ccccc1)C(=O)OCC (centres undefined) | inconclusive: 39.8 µM [inhibitor, partial curve] | –
19 | CN(C)c1cc(-c2ccc(Cl)cc2Cl)oc(=O)c1Cl | inconclusive: 22.4 µM [inhibitor, full curve] | –
20 | Cc1ccc(NC(=O)c2cc(-c3ccc(C)o3)nc3ccccc23)nc1 | inconclusive: 20 µM [inhibitor, full curve] | –
21 | O=C(O)c1ccc(S(=O)(=O)Nc2ccc(O)c(Sc3nc4ccccc4s3)c2)cc1 | active: 22.4 µM | –
22 | COc1cc(-c2nnc(SCc3cc(=O)oc4cc(C)ccc34)o2)cc(OC)c1OC | inconclusive: 0.178 µM [inhibitor, full curve] | –
23 | COc1ccc(/C=N/NC(=O)c2ccc(O)cc2)cc1CN1CCCc2ccccc21 | inconclusive: 39.8 µM [inhibitor, single point] | –

Row | SMILES | Potency | activity change, negative = inhibition
24 | COc1ccc2c(c1)n([O-])c1c([n+]2=O)CCC1 | – | inactive: -3.25%
25 | O=c1c2cn(Cc3ccc(F)cc3)c3ccc(F)cc3c-2nn1Cc1ccc(F)cc1 | inconclusive: 31.6 µM [inhibitor, full curve] | –
26 | CC(C)(C)c1ccc(/C=C/C(=O)Nc2ccncc2)cc1 | inconclusive: 89.1 µM [inhibitor, single point] | –
27 | O=S(=O)(Nc1ccc(-c2ccc(N3CCCCC3)nn2)cc1)c1ccc(OC(F)(F)F)cc1 | – | inactive: -7.23%
28 | Cc1ccc(S(=O)(=O)/N=C2/NC(=O)/C(=C/c3ccc(Br)o3)S2)cc1 | inconclusive: 31.6 µM [inhibitor, partial curve] | –
29 | CCCn1cc(S(=O)(=O)c2cccc(Cl)c2)c(=O)c2cc(F)c(N3CCOCC3)cc21 | – | inactive: 4.79%
30 | CCCOC(=O)c1ccc(Oc2cn[nH]c2-c2ccc(OCC(=O)NN)cc2O)cc1 | inconclusive: 56.2 µM [inhibitor, partial curve] | –
31 | COC(=O)C1=C(CSCc2ccco2)NC(=O)NC1c1cc(C)ccc1C (centres undefined) | inconclusive: 0.631 µM [inhibitor, full curve, poor fit] | –
32 | COc1ccc2c(C)c(CC(=O)NCc3ccccc3Cl)c(=O)oc2c1OC | active: 44.7 µM | –
33 | O=C(Nc1cc(SCC(O)CO)cc([N+](=O)[O-])c1)c1ccc(-n2cnnn2)cc1 (centres undefined) | inconclusive: 20 µM [inhibitor, full curve] | –
34 | Cc1nn(CC(=O)N(C)Cc2ccc(F)cc2)c(C)c1[N+](=O)[O-] | active: 0.178 µM | –
35 | Cc1nc2nc(SCC(=O)NCc3ccco3)nn2c(C)c1Cc1c(F)cccc1Cl | inconclusive: 89.1 µM [inhibitor, single point] | –
36 | Cc1nn(-c2ccccc2)c(C)c1NC(=O)Cc1cccs1 | inconclusive: 22.4 µM [inhibitor, full curve] | –
37 | CCC(CC)C(=O)Nc1cccc(C(=O)NCc2ccco2)c1 | active: 3.16 µM | –
38 | C#CCN1C(=O)C(O)(c2c(C)[nH]c3ccccc23)c2ccccc21 (centres undefined) | – | inconclusive: -35% [inhibitor]
39 | CN1/C(=C/c2cccc[n+]2C)Sc2ccccc21 | active: 31.6 µM | –
40 | Cc1cccc(N2CCN(C(=O)c3cc(=O)[nH]c4ccccc34)CC2)c1C | inconclusive: 0.562 µM [inhibitor, full curve, poor fit] | –
41 | CCOC(=O)c1c(NC(=O)c2cc(-c3ccc(OC)c(OC)c3)on2)sc2c1CCCC2 | inconclusive: 89.1 µM [inhibitor, single point] | –
42 | COc1cccc(CNC(=O)CNC(=S)N(Cc2ccccc2)Cc2ccccc2F)c1 | inconclusive: 0.891 µM [inhibitor, full curve, poor fit] | –
43 | CCCCC(=O)Nc1ccc(Br)cc1C(=O)O | inconclusive: 89.1 µM [inhibitor, single point] | –
44 | NS(=O)(=O)c1ccc(-n2nncc2-c2ccco2)cc1 | inconclusive: 50.1 µM [inhibitor, partial curve] | –
45 | Cc1cc(C)nc(NC(=O)c2ccc([N+](=O)[O-])c(C)c2)n1 | inconclusive: 89.1 µM [inhibitor, single point] | –
46 | O=S(=O)(c1ccccc1)N(C1=NCCS1)S(=O)(=O)c1ccccc1 | – | inactive: -27%

3 compounds from above, arranged by molar mass, ascending:
Row | SMILES | Potency | activity change, negative = inhibition
24 | COc1ccc2c(c1)n([O-])c1c([n+]2=O)CCC1 | – | inactive: -3.25%
33 | O=C(Nc1cc(SCC(O)CO)cc([N+](=O)[O-])c1)c1ccc(-n2cnnn2)cc1 (centres undefined) | inconclusive: 20 µM [inhibitor, full curve] | –
30 | CCCOC(=O)c1ccc(Oc2cn[nH]c2-c2ccc(OCC(=O)NN)cc2O)cc1 | inconclusive: 56.2 µM [inhibitor, partial curve] | –

In another format: 2 of the compounds above
Row	SMILES	Potency	activity change, negative = inhibition
37	CCC(CC)C(=O)Nc1cccc(C(=O)NCc2ccco2)c1	active: 3.16 µM	–
38	C#CCN1C(=O)C(O)(c2c(C)[nH]c3ccccc23)c2ccccc21 (centres undefined)	–	inconclusive: -35% [inhibitor]

(more compounds)

Row | SMILES | Potency | activity change, negative = inhibition
47 | O=C(COC(=O)CCc1nc2ccccc2c(=O)[nH]1)Nc1ccc(Cl)cn1 | – | inactive: 3.12%
48 | Clc1ccc2nc3ccccn3c2c1 | inconclusive: 89.1 µM [inhibitor, single point] | –
49 | COC(=O)c1sc(NC(=O)CSc2nnnn2C)nc1C | inconclusive: 79.4 µM [inhibitor, single point] | –
50 | CCc1ccc(C2c3c(-c4ccccc4O)n[nH]c3C(=O)N2Cc2cccnc2)cc1 (centres undefined) | – | inactive: -0.628%
51 | CC(C)OC(=O)C1C(=O)CC(C)(O)C(C(=O)OC(C)C)C1c1ccc([N+](=O)[O-])cc1 (centres undefined) | inconclusive: 89.1 µM [inhibitor, single point] | –
52 | COc1ccc(Nc2nn3c(=O)c4cc5c(cc4nc3s2)OCO5)c(OC)c1 | active: 3.55 µM | –
53 | Cc1cccc(N(C)S(=O)(=O)c2cc(-c3cnc(C4CC4)o3)ccc2C)c1 | – | inactive: -18.8%
54 | O=C1N=C(N2CCOCC2)S/C1=C/c1ccc(-c2ccc(F)cc2)o1 | inconclusive: 56.2 µM [inhibitor, single point] | –
55 | CCCCNC(=O)CCCN1C(=O)c2ccccc2Sc2ncccc21 | – | inactive: -5.87%
56 | COc1cc(-c2nn3c(-c4cccc(C)c4)nnc3s2)cc(OC)c1OC | inconclusive: 89.1 µM [inhibitor, single point] | –
57 | c1ccc(-c2ccccc2-c2nc(-c3cccnc3)no2)cc1 | inconclusive: 39.8 µM [inhibitor, single point] | –
58 | CC(=O)NC1C(Oc2ccc(C=O)cc2)OC(COC(C)=O)C(OC(C)=O)C1OC(C)=O (centres undefined) | active: 39.8 µM | –
59 | CN1C(=O)C2(c3ccccc31)N(c1cccc(C(F)(F)F)c1)C(=O)CS2(=O)=O (centres undefined) | – | inactive: -4.1%
60 | CCOC(=O)COc1ccc(Br)cc1/C=C/c1[nH]c(=O)[nH]c(=O)c1[N+](=O)[O-] | active: 56.2 µM | –
61 | CCOc1ccc(NC(=S)NC(=O)/C=C/c2ccco2)cc1 | – | inactive: -16.9%
62 | CN(C)c1nc(N)nc(CSc2ncc(Cl)cc2Cl)n1 | inconclusive: 1.41 µM [inhibitor, full curve] | –
63 | O=C(NCc1ccc(F)cc1)C(=O)NCC(c1ccc2c(c1)OCO2)N1CCOCC1 (centres undefined) | – | inactive: 1.5%
64 | O=C(O)CSC(C(=O)Nc1ccc(Br)cc1)c1ccc(Cl)cc1 (centres undefined) | inconclusive: 0.141 µM [inhibitor, full curve, poor fit] | –
65 | O=C(C1CCC1)N1CCc2cc(S(=O)(=O)NC3CCCc4ccccc43)ccc21 (centres undefined) | – | inactive: 0.985%
66 | O=S(=O)(N/N=C/c1cccnc1)c1ccc(Cl)c(Cl)c1 | inconclusive: 8.91 µM [inhibitor, full curve, poor fit] | –
67 | CCOc1cc(/C=C(/C#N)C(=O)Nc2ccc(O)cc2)cc(Br)c1O | inconclusive: 1.26 µM [inhibitor, full curve, poor fit] | –
68 | COc1ccccc1N1CCN(C/C(O)=C(\C#N)c2nc(-c3ccccc3)cs2)CC1 | inconclusive: 39.8 µM [inhibitor, single point] | –
69 | Cc1nnsc1C(=O)N1CCCC(N2CCN(c3ccc(F)cc3)CC2)C1 (centres undefined) | inconclusive: 100 µM [inhibitor, single point] | –
